Results reported in patent publication US4227002A, “Halo-A-23187 derivatives” (Eli Lilly and Company, priority 1978, dated 1980).

Experiment: affinity for Ca^2+ by two-phase extraction technique, aqueous phases of varying pH
Assay type: binding
Conditions: for relative affinities (Ca^2+ /Mg^2+) (in words): 4-bromo-A-23187 vs A-23187

CNc1c(Br)cc2oc(CC3OC4(CCC3C)OC(C(C)C(=O)c3ccc[nH]3)C(C)CC4C)nc2c1C(=O)O (stereo not drawn) [4-bromo-A-23187 (free acid), 6-bromo(or chloro)-5-(methylamino)-2-[[3β,9α,-11β-trimethyl-8-[1α-methyl-2-oxo-2-(1H-pyrrol-2-yl)ethyl]-1,7-dioxaspiro[5.5]undec-2β-yl]-methyl]-4-benzoxazolecarboxylic acid]
relative affinities (Ca^2+ /Mg^2+) (in words): similar | affinity for Ca^2+ compared with parent antibiotic (in words) (vs A-23187): higher affinity for both cations than does the parent antibiotic

CNc1ccc2oc(CC3OC4(CCC3C)OC(C(C)C(=O)c3ccc[nH]3)C(C)CC4C)nc2c1C(=O)O (stereo not drawn) [A-23187 (free acid), reference compound]
relative affinities (Ca^2+ /Mg^2+) (in words): similar
